The source of these data is patent US20020062009A1 (GlaxoSmithKline, published 2002).

Results are given in words; binding and its absence hold for the method and conditions named. Some entries that bind do so weakly or less than the wild type.

The target of the experiment is T1, human erythropoietin receptor (EPOr), recombinant entire extracellular domain (human) (UniProt P19235).
T1 sequence (looked up): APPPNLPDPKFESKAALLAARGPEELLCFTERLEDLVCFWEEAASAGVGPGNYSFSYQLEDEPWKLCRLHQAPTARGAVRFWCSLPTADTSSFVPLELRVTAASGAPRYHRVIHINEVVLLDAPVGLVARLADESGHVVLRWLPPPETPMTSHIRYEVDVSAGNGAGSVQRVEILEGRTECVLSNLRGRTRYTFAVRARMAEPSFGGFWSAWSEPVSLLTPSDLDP
Description: ELISA; EPOr extracellular domain adsorbed on plate, detected with anti-human H+L enzyme conjugate. A general note: An ELISA detects its analyte on a solid surface through an enzyme-linked reagent.

B1: HZ3G9, humanized variant of 3G9 (human frameworks) (antibody, IgG1, V domains shown)
VH: QVQLVQSGAEVKKPGASVKVSCKASGSTFTSYWMHWVKQAPGQGLEWIGRIDPNSGGTKDNEKFKSKATLTVDKSTSTAYMELSSLRSEDTAVYYCARETYYDSSFAYWGQGTMVTVSA
VL: DIVMTQSPSSLSASVGDRVTITCKASQNVGTNVAWYQQKPGKAPKALIYSASYRYSGVPDRFSGSGSGTDFTLTISSLQPEDFATYYCQQYNSYPLTFGGGT
For B1, the binding result was “binds”.
